Test results reported in patent US11236386B2, “Method for labeling of aldehyde containing target molecules” (Roche Diagnostics Operations, Inc., priority 2017, dated 2022).

Key:
[1] = tested on: formylglycine containing peptide (11) (SEQ ID NO:1); assay: Comparison of conversion rates of α-, ß- and N-(2-aminoethyl)pyrrole reacted with formylglycine containing peptide (11); settings: acetate buffer 0.05 M, pH=5.4, 37° C., identical conditions, compared among α-
[2] = tested on: mouse monoclonal antibody against TSH containing a C-terminal aldehyde tag of SEQ ID NO:3; assay: Site-specific labeling (conjugation efficacy) of aldehyde-tagged antibody, TSK GFC300 SA-FLUO analytics; settings: 37° C.

Row | SMILES | conversion / reaction velocity with formylglycine containing peptide (11) [1] | conjugation of aldehyde-tagged antibody ([2]; 3-fold excess of label, within 48 h) | conjugation of aldehyde-tagged antibody ([2]; 5-fold excess of label, within 24 h)
1 | NCCn1cccc1 [N-(2-aminoethyl)pyrrole, 2-(1H-pyrrol-1-yl)ethan-1-amine] | significantly faster | – | –
2 | NCCc1cc[nH]c1 [β-substituted pyrrole, ß-(2-aminoethyl)pyrrole, reference compound] | slightly faster | – | –
3 | NC(Cn1cccc1)C(=O)NCCCOCCOCCOCCCNC(=O)CCCCC1SCC2NC(=O)NC21 (stereo not shown) [Compound 5, N-Pyrrolo-alanine-PEG2-Biotin] | – | conjugated quantitatively | conjugated quantitatively
